For 42 sequences, binding signal results are on record in PMC7819943, “Rice protein-binding microarrays: a tool to detect cis-acting elements near promoter regions in rice”.

The list shows a part of the results.

The test addresses T1, OsSMF1 (Oryza sativa, UniProt Q6ZLB0 1-436).
T1 sequence: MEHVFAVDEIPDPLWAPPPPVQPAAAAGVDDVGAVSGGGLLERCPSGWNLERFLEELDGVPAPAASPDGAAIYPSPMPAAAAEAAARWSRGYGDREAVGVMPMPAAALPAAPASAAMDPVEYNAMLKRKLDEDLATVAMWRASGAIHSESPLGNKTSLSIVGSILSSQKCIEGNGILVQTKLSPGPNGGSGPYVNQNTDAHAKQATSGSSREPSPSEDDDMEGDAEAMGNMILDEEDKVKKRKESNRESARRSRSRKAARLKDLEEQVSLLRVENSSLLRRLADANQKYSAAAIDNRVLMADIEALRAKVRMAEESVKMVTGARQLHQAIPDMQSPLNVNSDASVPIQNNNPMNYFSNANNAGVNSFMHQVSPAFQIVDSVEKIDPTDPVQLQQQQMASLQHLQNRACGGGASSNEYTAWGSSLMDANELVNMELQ
Description: protein-binding microarray (RPBM); PBS, 2% BSA, 51.3 ng/ul salmon testes DNA, 50 uM zinc acetate, 200 nM TF, 25 C, 1 h; high values mean tight binding. To be noted: protein: recombinant; tags: N-terminal polyhistidine and DsRed monomer fusion (pET32a); chain copies: 2; label: CyDye5-dUTP incorporated in the synthesized complementary strand; 3' TTTTT single-stranded linker to array surface; dsDNA, one strand shown. An outline of the steps:
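Binding signal is reported as fluorescence intensity per feature (arbitrary units) from an Axon 4000B scanner. Incubation used 200 nM of each Ni–NTA-purified, N-terminally polyhistidine- and DsRed-fused transcription factor from E. coli BL21-CodonPlus on a double-stranded custom Agilent array for 1 h at 25 °C, with 50 µM zinc acetate in the buffer, followed by washing.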
In the case of “GCCCACAAGCGCTCGGCTCGAAACGCCACGTCACCACGCTCGGAGTCACCTAGTGCAG”, the binding signal was 43800 fluorescence intensity (a.u.).
In the case of “AATCCAATCCACCGTGGCATTTTCTGTGGCTCAAGCTTTGCGGAGTCACCTAGTGCAG” it was 10100 fluorescence intensity (a.u.); in that of “GACCTGTGACGACGTTGCTTGCCGCCTTGATGAGTCACTGCGGAGTCACCTAGTGCAG”, 9950 fluorescence intensity (a.u.); in that of “TTCCTTTAATATGCACCCACCAGCTGTCAAGTCAGCGCCTCGGAGTCACCTAGTGCAG”, 4190 fluorescence intensity (a.u.).
In the case of “GCCCAAGTTGAGGCCCAACTTGTCAGCCATCACTAAAAGCCGGAGTCACCTAGTGCAG” it was 3290 fluorescence intensity (a.u.).
Consider “GCCAAACACATTGGCGCTGACATTGGCCGTGTCAGCGCCACGGAGTCACCTAGTGCAG”, for which the binding signal is 9140 fluorescence intensity (a.u.).
For “CAGCGGTCCTTCCCGCTGACGGAGGAGGAGTACCTGCTCCCGGAGTCACCTAGTGCAG”, the binding signal was 3700 fluorescence intensity (a.u.).
The same measure for “GGATGAAATTAGCCCATCAGCAATTACGTGTAGGCCGTAGCGGAGTCACCTAGTGCAG”: 6580 fluorescence intensity (a.u.); for “ACAGATACGGACACTTCTTTGTTGAACCGTCCGGGTGACGCGGAGTCACCTAGTGCAG”: 22600 fluorescence intensity (a.u.); for “CTAGGCTTTCCTCTGTTGCTTGGTTGCATTGCATGCTTCTCGGAGTCACCTAGTGCAG”: 38900 fluorescence intensity (a.u.).
As to “TTATTATGAAAATATATTTAATTATTGATTTGATGAAACTCGGAGTCACCTAGTGCAG”, the binding signal was 21300 fluorescence intensity (a.u.).
In the case of “ATATATAATCAACATGATGACGGCAATTGCAGCCCGAAACCGGAGTCACCTAGTGCAG” it was 3500 fluorescence intensity (a.u.); in that of “GAATATATCCACGTAATTTGTTCACTATCACACACAATTGCGGAGTCACCTAGTGCAG”, 9460 fluorescence intensity (a.u.); in that of “TACATATGATGAGGACAAATTCAGGGGTAGCGTCATTGCCCGGAGTCACCTAGTGCAG”, 3450 fluorescence intensity (a.u.).
The same measure for “CGCCAACTCAACGCTGAAGCCGCTGCCTCACCATCTCGTCCGGAGTCACCTAGTGCAG”: 3250 fluorescence intensity (a.u.); for “TCCTCTTAACGAATAGGAGACCCCACGTGGCACGTCGAGCCGGAGTCACCTAGTGCAG”: 9700 fluorescence intensity (a.u.).
The same measure for “ATAAAGAAGGGAGGCAGCGGGCGAGCTGTAAAGGAGTACACGGAGTCACCTAGTGCAG”: 32300 fluorescence intensity (a.u.); for “TCCTCAGCCTCGACGCCGCCTTCCTCTCCTCCTGCGCCGGCGGAGTCACCTAGTGCAG”: 3700 fluorescence intensity (a.u.); for “CCCAAAAGGACGCGTAAGCAACGCTGCAGACGCAGCAATCCGGAGTCACCTAGTGCAG”: 3670 fluorescence intensity (a.u.).
In the case of “TTAGACACGTAGGTGCCATGTCAGCCAAAACCACCGAGGGCGGAGTCACCTAGTGCAG”, the binding signal is 17100 fluorescence intensity (a.u.).
For “CAAAATAGAGTAAAACAATCGCGTGACATCATCTTTATTTCGGAGTCACCTAGTGCAG”, the binding signal was 6960 fluorescence intensity (a.u.).
The same measure for “ATAAGTCCTACCTATGAGTTCCTTTCCATACTTGTCCAAGCGGAGTCACCTAGTGCAG”: 21200 fluorescence intensity (a.u.).
The same measure for “AATCATGACACGTAAATATAATGGAGAAGTCTTGTGAACCCGGAGTCACCTAGTGCAG”: 3680 fluorescence intensity (a.u.); for “TCTAAACTTGCAGATCATACGTTTAGATCATCCAACTTGTCGGAGTCACCTAGTGCAG”: 28000 fluorescence intensity (a.u.).
Regarding “TGCCCGGCTCGGCTACCCCGTCGCCACCGCCGTTCGTTTCCGGAGTCACCTAGTGCAG”, the binding signal is 3190 fluorescence intensity (a.u.).
For “ACGACTCTTGGTGCCACGTGTCGGGCTCATACGATGCCAGCGGAGTCACCTAGTGCAG”, the binding signal was 27600 fluorescence intensity (a.u.).
The same measure for “ATAGTACAGATCCAACGGCGATGACGTGAACATCCACCCTCGGAGTCACCTAGTGCAG”: 5070 fluorescence intensity (a.u.); for “ACTGGGGAAGGAATCACACCGTGGGCATGCTGTTGACTAGCGGAGTCACCTAGTGCAG”: 3370 fluorescence intensity (a.u.); for “GCAGAAAAGACTTCACGCACAGATGGTTTATTGGAGTTGGCGGAGTCACCTAGTGCAG”: 3790 fluorescence intensity (a.u.).
The same measure for “CCACCCTCGCGCGGACGCGGCGCCCCTCCCCTTTGGCGCCCGGAGTCACCTAGTGCAG”: 3300 fluorescence intensity (a.u.); for “ATTCATATATATGTGTGCCTAGATTCATTAACATCTATATCGGAGTCACCTAGTGCAG”: 3440 fluorescence intensity (a.u.).
For the sequence “CTGCATGGAAGGGGTACAGTTCTTTGCCGAACGGGAGTCCCGGAGTCACCTAGTGCAG”, the binding signal was 24300 fluorescence intensity (a.u.).
As to “GGCGGCCTAAGAGCATTTGTAGGAGTCCCACGTGGCAGCTCGGAGTCACCTAGTGCAG”, the binding signal was 23100 fluorescence intensity (a.u.).
The same measure for “AAATTACCACAATAGGTTTATGTTAGCCTGGTGGTCATGCCGGAGTCACCTAGTGCAG”: 4480 fluorescence intensity (a.u.); for “CGCTTTAACATTTAAATTTAGCTTTAAAAGTTTATTATGGCGGAGTCACCTAGTGCAG”: 15300 fluorescence intensity (a.u.).
For “ACCAACACCCGCCTCGCCGCCACCGCCACCTCCCCTTCTTCGGAGTCACCTAGTGCAG”, the binding signal is 4710 fluorescence intensity (a.u.).
The same measure for “AGATGGAGCAGGCATCAACTGGTGTTGGTCCTATGGACCGCGGAGTCACCTAGTGCAG”: 3320 fluorescence intensity (a.u.); for “AACTATAGATCCAAGTGAGGAAGCTATATTCCCAAATTTTCGGAGTCACCTAGTGCAG”: 46000 fluorescence intensity (a.u.).
On to “CTATAATTTAAACATGTAAAGTTTACGTGTATATAAATTTCGGAGTCACCTAGTGCAG”, for which the binding signal is 3160 fluorescence intensity (a.u.).
The same measure for “GGACAGGCTACCTGCAGTGATGAACGGCGTCGATCACCACCGGAGTCACCTAGTGCAG”: 14900 fluorescence intensity (a.u.); for “GATCGATGGAGTGAGACGCATCAGGTTGCTTCCGGCGACGCGGAGTCACCTAGTGCAG”: 10900 fluorescence intensity (a.u.).
For the sequence “CAACGCACGCACGCGCCATCACCACCACCTCGACGCCGGCCGGAGTCACCTAGTGCAG”, the binding signal was 3570 fluorescence intensity (a.u.).
